Reference: the supplement of paper PMC10849652
Some of the results follow.

The chains behind the UniProt entries cited, without tags or fusion partners. Where a name states a change or a piece, a line headed by the entry shows the natural chain unless it says otherwise.
UniProt Q6AI12: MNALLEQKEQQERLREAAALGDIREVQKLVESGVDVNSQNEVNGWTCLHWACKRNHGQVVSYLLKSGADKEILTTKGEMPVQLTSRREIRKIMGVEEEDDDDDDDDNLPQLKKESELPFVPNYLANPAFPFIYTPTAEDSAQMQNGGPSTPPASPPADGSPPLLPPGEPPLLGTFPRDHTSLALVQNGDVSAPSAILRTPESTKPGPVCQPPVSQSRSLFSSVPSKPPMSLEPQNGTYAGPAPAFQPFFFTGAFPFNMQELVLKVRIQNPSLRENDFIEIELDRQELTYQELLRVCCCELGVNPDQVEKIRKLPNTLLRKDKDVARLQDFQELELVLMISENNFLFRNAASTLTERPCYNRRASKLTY
UniProt Q9BXS5: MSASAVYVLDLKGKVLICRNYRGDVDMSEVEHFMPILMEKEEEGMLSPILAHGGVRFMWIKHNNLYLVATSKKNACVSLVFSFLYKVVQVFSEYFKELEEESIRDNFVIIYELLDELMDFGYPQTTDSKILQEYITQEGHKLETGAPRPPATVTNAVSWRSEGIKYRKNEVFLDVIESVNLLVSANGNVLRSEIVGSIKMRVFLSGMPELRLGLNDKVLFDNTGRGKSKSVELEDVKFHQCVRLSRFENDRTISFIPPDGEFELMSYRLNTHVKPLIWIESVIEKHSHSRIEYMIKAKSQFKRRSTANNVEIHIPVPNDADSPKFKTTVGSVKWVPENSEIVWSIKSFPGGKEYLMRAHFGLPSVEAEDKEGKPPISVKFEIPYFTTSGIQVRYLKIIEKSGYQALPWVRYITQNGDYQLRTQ
UniProt P27216: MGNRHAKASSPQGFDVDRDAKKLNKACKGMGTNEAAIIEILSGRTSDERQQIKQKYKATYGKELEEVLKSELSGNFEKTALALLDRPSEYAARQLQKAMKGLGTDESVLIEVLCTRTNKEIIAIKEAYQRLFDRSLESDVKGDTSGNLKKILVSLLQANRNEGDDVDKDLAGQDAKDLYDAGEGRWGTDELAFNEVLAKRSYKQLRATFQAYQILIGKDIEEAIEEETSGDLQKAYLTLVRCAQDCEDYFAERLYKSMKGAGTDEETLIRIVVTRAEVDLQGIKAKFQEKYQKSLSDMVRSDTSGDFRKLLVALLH
UniProt Q96PC3: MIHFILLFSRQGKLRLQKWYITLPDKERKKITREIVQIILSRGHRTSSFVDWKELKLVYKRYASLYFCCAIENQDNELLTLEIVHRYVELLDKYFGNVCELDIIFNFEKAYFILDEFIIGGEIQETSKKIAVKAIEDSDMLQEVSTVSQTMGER
UniProt Q02252: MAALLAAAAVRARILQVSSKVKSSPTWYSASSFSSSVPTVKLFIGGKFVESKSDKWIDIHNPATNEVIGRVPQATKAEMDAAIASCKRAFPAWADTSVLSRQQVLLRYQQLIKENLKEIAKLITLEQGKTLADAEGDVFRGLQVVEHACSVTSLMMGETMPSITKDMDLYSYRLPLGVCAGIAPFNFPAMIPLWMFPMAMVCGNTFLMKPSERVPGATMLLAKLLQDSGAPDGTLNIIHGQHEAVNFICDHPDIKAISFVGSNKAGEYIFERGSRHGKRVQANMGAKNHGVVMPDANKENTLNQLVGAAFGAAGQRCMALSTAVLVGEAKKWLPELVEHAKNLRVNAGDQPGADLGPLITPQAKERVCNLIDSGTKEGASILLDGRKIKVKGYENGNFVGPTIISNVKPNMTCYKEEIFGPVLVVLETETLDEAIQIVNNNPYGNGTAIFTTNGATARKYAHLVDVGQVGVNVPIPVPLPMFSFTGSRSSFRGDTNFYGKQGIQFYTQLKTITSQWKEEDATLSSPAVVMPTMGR
UniProt Q13686: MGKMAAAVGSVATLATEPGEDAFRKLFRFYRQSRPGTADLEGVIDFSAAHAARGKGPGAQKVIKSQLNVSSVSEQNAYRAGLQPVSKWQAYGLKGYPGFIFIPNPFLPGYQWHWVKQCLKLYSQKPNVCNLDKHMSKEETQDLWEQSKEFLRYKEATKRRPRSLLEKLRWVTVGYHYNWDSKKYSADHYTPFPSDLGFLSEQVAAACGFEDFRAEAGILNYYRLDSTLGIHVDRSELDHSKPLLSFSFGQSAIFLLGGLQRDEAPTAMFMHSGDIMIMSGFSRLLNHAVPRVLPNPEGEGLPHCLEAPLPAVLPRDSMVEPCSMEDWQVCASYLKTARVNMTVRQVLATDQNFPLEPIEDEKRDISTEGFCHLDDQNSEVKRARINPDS
UniProt Q2TAA5: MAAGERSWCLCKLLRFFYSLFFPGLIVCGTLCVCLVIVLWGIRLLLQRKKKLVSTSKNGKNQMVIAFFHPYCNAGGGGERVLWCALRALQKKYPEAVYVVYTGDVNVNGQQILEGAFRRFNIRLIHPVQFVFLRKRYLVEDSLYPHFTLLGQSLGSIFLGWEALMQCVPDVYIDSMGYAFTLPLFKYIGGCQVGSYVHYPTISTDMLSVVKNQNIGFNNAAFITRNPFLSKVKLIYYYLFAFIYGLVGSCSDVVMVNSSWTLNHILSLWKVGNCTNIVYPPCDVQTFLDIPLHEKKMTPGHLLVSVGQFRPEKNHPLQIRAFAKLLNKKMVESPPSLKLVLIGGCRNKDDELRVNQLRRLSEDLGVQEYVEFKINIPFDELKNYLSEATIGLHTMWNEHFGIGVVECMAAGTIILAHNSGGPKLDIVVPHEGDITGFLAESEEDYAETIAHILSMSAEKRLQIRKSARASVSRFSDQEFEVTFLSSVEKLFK
UniProt Q8IWZ3: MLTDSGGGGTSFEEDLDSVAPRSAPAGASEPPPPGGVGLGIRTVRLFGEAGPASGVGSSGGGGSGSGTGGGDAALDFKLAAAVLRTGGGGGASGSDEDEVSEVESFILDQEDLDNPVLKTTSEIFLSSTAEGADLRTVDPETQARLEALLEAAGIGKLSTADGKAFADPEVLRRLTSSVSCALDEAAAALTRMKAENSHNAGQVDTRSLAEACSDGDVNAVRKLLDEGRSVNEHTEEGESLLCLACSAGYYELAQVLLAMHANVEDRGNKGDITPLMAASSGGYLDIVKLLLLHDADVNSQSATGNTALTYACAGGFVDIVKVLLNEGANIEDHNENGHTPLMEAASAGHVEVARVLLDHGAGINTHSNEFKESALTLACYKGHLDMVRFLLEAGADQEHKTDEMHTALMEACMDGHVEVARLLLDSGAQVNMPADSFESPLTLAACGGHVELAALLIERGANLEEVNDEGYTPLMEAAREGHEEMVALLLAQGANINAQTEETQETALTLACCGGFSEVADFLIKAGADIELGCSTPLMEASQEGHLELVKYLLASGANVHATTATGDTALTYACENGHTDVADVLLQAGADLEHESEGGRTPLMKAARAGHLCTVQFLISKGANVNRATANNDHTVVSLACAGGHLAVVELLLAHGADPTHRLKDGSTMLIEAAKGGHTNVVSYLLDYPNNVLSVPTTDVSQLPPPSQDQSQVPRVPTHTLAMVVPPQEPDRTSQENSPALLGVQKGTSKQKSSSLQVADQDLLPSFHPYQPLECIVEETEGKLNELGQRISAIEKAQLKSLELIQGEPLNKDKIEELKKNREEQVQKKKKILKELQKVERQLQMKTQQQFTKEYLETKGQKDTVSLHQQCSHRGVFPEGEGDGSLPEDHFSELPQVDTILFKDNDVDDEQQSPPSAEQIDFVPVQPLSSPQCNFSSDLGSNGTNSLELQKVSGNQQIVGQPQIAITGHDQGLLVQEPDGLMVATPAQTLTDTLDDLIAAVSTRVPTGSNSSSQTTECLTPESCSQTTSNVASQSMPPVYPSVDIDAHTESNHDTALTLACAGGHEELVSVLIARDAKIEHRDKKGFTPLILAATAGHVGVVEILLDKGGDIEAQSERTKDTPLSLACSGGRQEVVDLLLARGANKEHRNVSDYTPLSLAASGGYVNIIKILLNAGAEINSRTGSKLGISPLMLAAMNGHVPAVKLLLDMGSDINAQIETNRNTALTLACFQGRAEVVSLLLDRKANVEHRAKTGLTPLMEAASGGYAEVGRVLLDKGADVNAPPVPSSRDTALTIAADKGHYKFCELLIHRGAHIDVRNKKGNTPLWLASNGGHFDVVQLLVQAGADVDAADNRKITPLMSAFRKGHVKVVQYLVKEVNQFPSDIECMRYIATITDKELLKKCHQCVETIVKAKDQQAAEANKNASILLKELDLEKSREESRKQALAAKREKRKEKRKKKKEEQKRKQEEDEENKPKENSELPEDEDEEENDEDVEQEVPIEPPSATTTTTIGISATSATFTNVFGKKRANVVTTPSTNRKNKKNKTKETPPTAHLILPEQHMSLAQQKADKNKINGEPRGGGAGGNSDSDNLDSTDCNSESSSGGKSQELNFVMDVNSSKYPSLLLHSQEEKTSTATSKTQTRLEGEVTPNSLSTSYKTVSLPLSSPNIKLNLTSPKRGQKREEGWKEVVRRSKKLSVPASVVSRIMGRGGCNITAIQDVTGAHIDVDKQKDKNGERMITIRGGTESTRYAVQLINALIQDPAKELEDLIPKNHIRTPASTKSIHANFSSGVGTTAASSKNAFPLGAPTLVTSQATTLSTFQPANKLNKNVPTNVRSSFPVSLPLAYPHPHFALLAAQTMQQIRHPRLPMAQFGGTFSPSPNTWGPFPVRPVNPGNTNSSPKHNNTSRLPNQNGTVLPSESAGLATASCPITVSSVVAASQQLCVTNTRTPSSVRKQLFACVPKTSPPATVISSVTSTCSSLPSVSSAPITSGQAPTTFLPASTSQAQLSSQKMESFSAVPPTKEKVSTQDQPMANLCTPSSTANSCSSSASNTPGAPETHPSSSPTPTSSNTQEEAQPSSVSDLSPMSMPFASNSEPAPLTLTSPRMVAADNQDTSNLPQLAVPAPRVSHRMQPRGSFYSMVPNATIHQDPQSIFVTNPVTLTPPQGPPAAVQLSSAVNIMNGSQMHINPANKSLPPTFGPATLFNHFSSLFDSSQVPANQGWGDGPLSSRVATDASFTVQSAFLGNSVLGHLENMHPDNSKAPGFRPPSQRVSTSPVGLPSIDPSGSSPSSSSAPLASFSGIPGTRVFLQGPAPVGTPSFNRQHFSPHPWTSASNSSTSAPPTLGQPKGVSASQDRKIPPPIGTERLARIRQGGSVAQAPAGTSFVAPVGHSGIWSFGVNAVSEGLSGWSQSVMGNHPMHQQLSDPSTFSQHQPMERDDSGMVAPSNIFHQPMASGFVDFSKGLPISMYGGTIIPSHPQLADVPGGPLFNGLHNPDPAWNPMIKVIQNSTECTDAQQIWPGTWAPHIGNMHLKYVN
UniProt Q9C0C7: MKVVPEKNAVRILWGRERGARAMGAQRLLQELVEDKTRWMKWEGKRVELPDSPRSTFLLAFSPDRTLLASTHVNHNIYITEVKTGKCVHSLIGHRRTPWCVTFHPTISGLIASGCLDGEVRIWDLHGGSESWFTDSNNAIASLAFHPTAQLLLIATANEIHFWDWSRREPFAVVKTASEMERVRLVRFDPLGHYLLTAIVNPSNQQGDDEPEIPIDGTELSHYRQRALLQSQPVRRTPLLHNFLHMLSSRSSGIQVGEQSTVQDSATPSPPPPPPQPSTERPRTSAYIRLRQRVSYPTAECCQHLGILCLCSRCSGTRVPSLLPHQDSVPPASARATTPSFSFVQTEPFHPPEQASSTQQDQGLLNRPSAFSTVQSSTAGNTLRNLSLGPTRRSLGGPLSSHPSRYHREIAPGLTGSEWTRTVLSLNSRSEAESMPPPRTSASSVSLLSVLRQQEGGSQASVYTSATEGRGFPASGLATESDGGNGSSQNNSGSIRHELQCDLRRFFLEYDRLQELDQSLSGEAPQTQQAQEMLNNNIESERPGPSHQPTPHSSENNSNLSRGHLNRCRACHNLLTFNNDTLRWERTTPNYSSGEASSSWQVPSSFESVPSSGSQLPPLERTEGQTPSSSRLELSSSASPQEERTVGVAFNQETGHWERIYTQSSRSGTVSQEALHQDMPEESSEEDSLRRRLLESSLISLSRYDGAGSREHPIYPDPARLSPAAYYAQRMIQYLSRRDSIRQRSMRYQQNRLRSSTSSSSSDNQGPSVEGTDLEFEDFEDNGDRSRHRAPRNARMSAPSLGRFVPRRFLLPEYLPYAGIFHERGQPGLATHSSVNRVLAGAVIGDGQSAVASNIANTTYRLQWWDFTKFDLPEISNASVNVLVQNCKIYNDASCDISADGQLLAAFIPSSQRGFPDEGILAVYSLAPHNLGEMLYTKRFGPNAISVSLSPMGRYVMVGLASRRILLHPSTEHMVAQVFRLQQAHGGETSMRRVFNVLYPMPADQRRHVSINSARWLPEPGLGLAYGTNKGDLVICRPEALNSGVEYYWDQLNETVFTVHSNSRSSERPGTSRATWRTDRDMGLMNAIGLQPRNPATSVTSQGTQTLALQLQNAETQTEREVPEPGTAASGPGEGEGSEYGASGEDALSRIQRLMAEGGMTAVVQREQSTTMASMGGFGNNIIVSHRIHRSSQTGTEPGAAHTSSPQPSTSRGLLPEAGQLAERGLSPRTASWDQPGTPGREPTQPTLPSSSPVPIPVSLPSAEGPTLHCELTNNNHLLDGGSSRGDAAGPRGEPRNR

Experiments:
Test in all cases: log2 fold change, soluble protein after heating vs DMSO (PISA); higher = thermal stabilisation; K562 lysate, 10 uM; active = over 0.2 and 3.5 SD of the protein, either way, in both replicates (recomputed)
erlotinib = compound: C#Cc1cccc(Nc2ncnc3cc(OCCOC)c(OCCOC)cc23)c1 [erlotinib]
Summary of the method: (§1)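 The values are log-two fold changes in thermal stability compared with solvent controls and come from duplicates. They were obtained by TMTpro 16plex LC-MS/MS, with channel sums equalised, on the supernatant after 21,000xg for 90 min. That supernatant came from crude K562 extract at 1 mg/mL protein treated with 10 μM compound for 30 min, heated for 3 min across 48°C-58°C, pooled and brought to 0.5% NP-40 at 4°C.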

[1] = compound: C/C(=N\NC(=O)C1=CC(=CC=C1)S(=O)(=O)N2CCOCC2)/C3=C(C=CC(=C3)Cl)O
Summary of the method: as §1

[2] = compound: C1=CC(=CC=C1C2=NC3=C(N2)C=C(C=C3)C(=O)N)OC4=CC=C(C=C4)Cl
Summary of the method: as §1

[3] = compound: C1=CC2=C(C=CC(=C2)/C=C\3/C(=O)NC(=NCC4=CC=CS4)S3)N=C1
Summary of the method: as §1

[4] = compound: C1=CC2=NC=CN=C2C=C1/C=C/3\C(=O)NC(=O)S3
Summary of the method: as §1

[5] = compound: C1=CC=C(C=C1)C2=NC(=C(N2)C3=CC=NC=C3)C4=CC(=C(C=C4)Cl)O
Summary of the method: as §1

[6] = compound: C1=CC=C2C(=C1)C3=NNC4=CC=CC(=C43)C2=O
Summary of the method: as §1

[7] = compound: C1CCN(C1)C(=O)NC2=CC=CC(=C2)NC3=NC=C(C(=N3)NCCC4=CN=CN4)Br
Summary of the method: as §1

[8] = compound: C1CN(CCC1(CC2=CC=C(C=C2)Cl)N)C3=NC=NC4=C3C=CN4
Summary of the method: as §1

IRAK-1-4 Inhibitor I = compound: C1COCCN1CCN2C3=CC=CC=C3N=C2NC(=O)C4=CC(=CC=C4)[N+](=O)[O-] [IRAK-1-4 Inhibitor I]
Summary of the method: as §1

Measured: log2 fold change

ANKMY2 (UniProt Q8IV38)
inactive: erlotinib -0.016 | [1] 0.027 | [2] 0 | [3] -0.011 | [4] -0.007 | [5] 0.005 | [6] 0.003 | [7] 0.016 | [8] 0.001 | IRAK-1-4 Inhibitor I 0.004

AP4E1 (UniProt Q9UPM8)
inactive: erlotinib 0.002 | [1] -0.104 | [2] 0.009 | [3] 0.035 | [4] 0 | [5] -0.016 | [6] -0.052 | [7] -0.021 | [8] -0.032 | IRAK-1-4 Inhibitor I 0.012

ANKRD40 (UniProt Q6AI12)
inactive: erlotinib 0.085 | [1] -0.269 | [2] 0.093 | [3] -0.143 | [4] 0.232 | [5] 0.065 | [6] -0.163 | [7] 0.296 | [8] 0.203 | IRAK-1-4 Inhibitor I -0.091

ANGEL2 (UniProt Q5VTE6)
inactive: erlotinib -0.018 | [1] 0.055 | [2] 0.034 | [3] -0.074 | [4] -0.09 | [5] -0.193 | [6] -0.033 | [7] 0.018 | [8] 0.013 | IRAK-1-4 Inhibitor I 0.028

ALG2 (UniProt Q9H553)
inactive: erlotinib 0 | [1] 0.08 | [2] -0.01 | [3] -0.076 | [4] 0 | [5] 0.026 | [6] -0.062 | [7] 0 | [8] 0.052 | IRAK-1-4 Inhibitor I -0.039

AP1G2 (UniProt O75843)
inactive: erlotinib 0.052 | [1] 0.016 | [2] 0.068 | [3] -0.116 | [4] -0.07 | [5] 0 | [6] 0.001 | [7] -0.003 | [8] 0.034 | IRAK-1-4 Inhibitor I -0.007

ANKRD30B (UniProt Q9BXX2)
inactive: erlotinib 0.077 | [1] 0.106 | [2] -0.053 | [3] -0.115 | [4] 0.005 | [5] -0.032 | [6] -0.047 | [7] -0.006 | [8] 0.124 | IRAK-1-4 Inhibitor I 0.095

AP1G1 isoform 2 (UniProt O43747)
inactive: erlotinib -0.016 | [1] -0.018 | [2] -0.007 | [3] 0.004 | [4] 0.001 | [5] 0.02 | [6] -0.008 | [7] -0.034 | [8] -0.002 | IRAK-1-4 Inhibitor I 0.03

ANXA7 (UniProt P20073)
inactive: erlotinib -0.012 | [1] 0.007 | [2] 0.013 | [3] 0.005 | [4] -0.006 | [5] 0.004 | [6] -0.013 | [7] 0 | [8] 0.007 | IRAK-1-4 Inhibitor I -0.004

AP1M1 (UniProt Q9BXS5)
inactive: erlotinib -0.023 | [1] -0.044 | [2] 0.01 | [3] -0.002 | [4] 0.004 | [5] 0.008 | [6] 0.034 | [7] -0.019 | [8] -0.007 | IRAK-1-4 Inhibitor I 0.003

ANKRD17 (UniProt O75179)
inactive: erlotinib 0.015 | [1] -0.087 | [2] 0.022 | [3] -0.01 | [4] -0.008 | [5] -0.035 | [6] -0.032 | [7] -0.027 | [8] -0.033 | IRAK-1-4 Inhibitor I -0.021

ALPK1 (UniProt Q96QP1)
inactive: erlotinib -0.083 | [2] 0.04

AP1S2 (UniProt H7BZG6)
inactive: erlotinib -0.051 | [2] -0.085

ANAPC16 (UniProt Q96DE5)
inactive: erlotinib 0.046 | [1] 0.046 | [2] -0.023 | [3] -0.171 | [5] -0.089 | [6] -0.028 | [7] 0.295 | [8] -0.112 | IRAK-1-4 Inhibitor I -0.017

ANXA13 isoform 2 (UniProt P27216)
inactive: erlotinib -0.078 | [1] 0.111 | [2] -0.121 | [3] -0.019 | [4] -0.083 | [5] -0.029 | [6] 0.029 | IRAK-1-4 Inhibitor I -0.174

ANP32A (UniProt P39687)
inactive: erlotinib -0.147 | [1] 0.075 | [2] -0.199 | [3] -0.012 | [4] 0.012 | [5] 0.006 | [6] 0.018 | [7] 0.026 | [8] -0.008 | IRAK-1-4 Inhibitor I 0.013

AP1S3 isoform 4 (UniProt Q96PC3)
inactive: erlotinib -0.098 | [2] -0.054 | [4] 0.085 | [5] 0.198 | IRAK-1-4 Inhibitor I -0.025

ANXA2 (UniProt H0YL33)
inactive: erlotinib -0.153 | [2] 0.088 | [4] -0.108 | [5] -0.027 | IRAK-1-4 Inhibitor I -0.031

ALDH6A1 (UniProt Q02252)
inactive: erlotinib -0.03 | [1] 0.064 | [2] -0.04 | [3] -0.068 | [4] -0.179 | [5] 0.043 | [6] -0.031 | [7] -0.022 | [8] 0.015 | IRAK-1-4 Inhibitor I 0.024

ALOX12B (UniProt O75342)
inactive: erlotinib -0.075 | [2] -0.032 | [4] 0.007 | [5] -0.201 | IRAK-1-4 Inhibitor I -0.137

ANKRD52 (UniProt Q8NB46)
inactive: erlotinib 0.056 | [1] -0.288 | [2] 0.026 | [3] -0.011 | [4] 0.021 | [5] 0.013 | [6] -0.092 | [7] 0.008 | [8] 0.072 | IRAK-1-4 Inhibitor I 0.051

ALKBH1 (UniProt Q13686)
inactive: erlotinib 0.033 | [1] -0.042 | [2] -0.02 | [3] 0.052 | [5] 0.024 | [6] -0.022 | [7] 0.211 | [8] 0.041 | IRAK-1-4 Inhibitor I -0.11

AMMECR1L (UniProt Q6DCA0)
inactive: erlotinib -0.159 | [1] 0.023 | [2] 0.206 | [3] 0.028 | [5] -0.081 | [6] 0.006 | [7] 0.001 | [8] 0.082 | IRAK-1-4 Inhibitor I -0.049

ALG11 (UniProt Q2TAA5)
inactive: erlotinib 0.074 | [2] -0.008 | [4] -0.162 | [5] -0.023 | IRAK-1-4 Inhibitor I 0.012

AP3D1 isoform 2 (UniProt O14617)
inactive: erlotinib 0.029 | [1] -0.082 | [2] -0.15 | [3] -0.162 | [6] -0.026

Fetched one by one from above, 2 records:
AP3D1 isoform 2 (UniProt O14617)
inactive: erlotinib 0.029 | [1] -0.082 | [2] -0.15 | [3] -0.162 | [6] -0.026

ALKBH1 (UniProt Q13686)
inactive: erlotinib 0.033 | [1] -0.042 | [2] -0.02 | [3] 0.052 | [5] 0.024 | [6] -0.022 | [7] 0.211 | [8] 0.041 | IRAK-1-4 Inhibitor I -0.11

Remaining list, next part

ALG6 (UniProt Q9Y672)
inactive: erlotinib 0.07 | [1] 0.114 | [2] 0.011 | [3] 0.071 | [4] 0.023 | [5] 0 | [6] -0.28 | [7] 0.003 | [8] -0.084 | IRAK-1-4 Inhibitor I 0.084

ANKRD10 (UniProt Q9NXR5)
inactive: erlotinib 0.023 | [1] 0.045 | [2] -0.041 | [3] 0.009 | [4] 0.055 | [5] 0.012 | [6] -0.066 | IRAK-1-4 Inhibitor I -0.059

ANO6 (UniProt Q4KMQ2)
inactive: erlotinib -0.002 | [1] 0.039 | [2] -0.05 | [3] -0.019 | [4] -0.022 | [5] -0.013 | [6] -0.019 | [7] -0.036 | [8] -0.009 | IRAK-1-4 Inhibitor I 0.01

ANKRD44 isoform 2 (UniProt Q8N8A2)
inactive: erlotinib -0.034 | [1] -0.035 | [2] 0.002 | [3] -0.083 | [4] -0.016 | [6] -0.257 | [7] -0.059 | [8] -0.032

ALDOA (UniProt H3BPS8)
inactive: erlotinib -0.097 | [1] 0.007 | [2] 0.075 | [3] 0.004 | [4] -0.057 | [6] -0.005 | [7] 0.007 | [8] 0.253

ALKBH6 isoform 2 (UniProt Q3KRA9)
inactive: erlotinib 0.026 | [1] 0.008 | [2] -0.002 | [3] -0.019 | [5] 0.018 | [6] -0.005 | [7] -0.045 | [8] 0.012 | IRAK-1-4 Inhibitor I -0.015

ANKHD1 isoform 2 (UniProt Q8IWZ3)
inactive: erlotinib 0.074 | [2] -0.036 | [4] -0.027 | [5] 0.061 | [7] 0.037 | [8] -0.015 | IRAK-1-4 Inhibitor I -0.036

ANKRD26 (UniProt Q9UPS8)
inactive: erlotinib -0.013 | [1] -0.334 | [2] 0.026 | [3] 0.134 | [4] -0.111 | [5] -0.031 | [6] -0.341 | [7] 0.074 | [8] -0.17 | IRAK-1-4 Inhibitor I 0.269

AMBRA1 isoform 5 (UniProt Q9C0C7)
inactive: erlotinib -0.047 | [1] -0.291 | [2] -0.015 | [3] 0.21 | [5] 0.043 | [6] 0.107 | [7] -0.032 | [8] 0.14 | IRAK-1-4 Inhibitor I -0.061
